Patent US20230089867A1, “CYCLIC PENTAMER COMPOUNDS AS PROPROTEIN CONVERTASE SUBTILISIN/KEXIN TYPE 9 (PCSK9) INHIBITORS FOR THE TREATMENT OF METABOLIC DISORDER” (Novartis AG, priority 2018, published 2023)
Part of at least one peptide drawing is inferred or uncertain, most often the ends.

The chains behind the UniProt entries cited, without tags or fusion partners. Residues count along the entry.
UniProt Q8NBP7, 31-152 partner limits assumed: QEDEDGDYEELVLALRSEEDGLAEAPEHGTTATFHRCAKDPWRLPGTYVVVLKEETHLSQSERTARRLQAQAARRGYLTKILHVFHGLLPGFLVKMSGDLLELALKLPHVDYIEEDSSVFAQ
UniProt Q8NBP7, 153-692: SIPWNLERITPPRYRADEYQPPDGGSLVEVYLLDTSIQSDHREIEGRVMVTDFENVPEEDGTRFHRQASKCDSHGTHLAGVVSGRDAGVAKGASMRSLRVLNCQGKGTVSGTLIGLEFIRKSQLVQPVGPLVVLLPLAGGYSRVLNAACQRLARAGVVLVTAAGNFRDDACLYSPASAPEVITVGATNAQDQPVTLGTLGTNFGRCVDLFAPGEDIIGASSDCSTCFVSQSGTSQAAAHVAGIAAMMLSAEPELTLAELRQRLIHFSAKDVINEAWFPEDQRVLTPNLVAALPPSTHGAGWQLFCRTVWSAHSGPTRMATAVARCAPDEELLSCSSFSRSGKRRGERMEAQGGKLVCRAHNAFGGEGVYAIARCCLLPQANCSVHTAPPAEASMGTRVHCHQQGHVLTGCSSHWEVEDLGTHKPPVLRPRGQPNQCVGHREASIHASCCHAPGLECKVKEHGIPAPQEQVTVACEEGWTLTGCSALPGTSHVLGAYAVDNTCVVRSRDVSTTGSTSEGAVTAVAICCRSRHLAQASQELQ

Molecular target: human PCSK9 (Homo sapiens, UniProt Q8NBP7)
Assay: PCSK9 ligand binding TR-FRET assay (interference with binding of human PCSK9 to human LDLR)
Settings: human PCSK9 Alexa Fluor 647 / human LDLR extracellular domain-Europium Kryptate
Experimental: The PCSK9 binding of the compounds of the disclosure were measured using a time resolved fluorescence resonance energy transfer (TR-FRET) assay. This time resolved fluorescence resonance energy transfer (TR-FRET) assay measures the ability of a compound of the present disclosure to interfere with the binding of human PCSK9 to human LDLR, providing measures of both potency (IC50) and efficacy (Amax).
These solutions were pipetted into columns 1 and 11 of the compound plate. Threefold serial dilutions were generated in columns 2-10 and 12-20 of the compound plate by transferring 10 uL into 20 uL of DMSO. Columns 21 and 22 of the compound plate were negative controls containing DMSO alone.
An intermediate plate was generated in a Greiner V bottom plate by transferring 8 uL from each well of the master plate into a corresponding well containing 92 uL of assay buffer and mixing thoroughly.
A Proxi plate-low volume assay plate was used for the assay. […] For the positive control wells in columns 23 and 24 of the plate, 5 uL of unlabeled human PCSK9 was added at 4 uM in assay buffer containing 8% DMSO. Following a 30 minute incubation, 5 uL of 4 nM Human LDLR extracellular domain-Europium Kryptate was added and the mixture was incubated for an additional 2 hours.
The FRET ratio (FRET/Europium) was used for calculations.
Data is expressed as percent inhibition: (value−0%)/(100%−0%).

In the case of `COC[C@@H]1NC(=O)[C@H](C)N(Cc2ccc(Cl)cc2Oc2ccc(-c3cncc(C4CCCN4)c3)cc2)C(=O)C[C@@H](Cc2ccccc2)C(=O)N(C)[C@@H](C)CNC(=O)C[C@H](Cc2ccc(Cl)cc2)N(C)C1=O` (stereo partly drawn) [Compound 119, (2S,5S,8S,13S,16R)-16-benzyl-1-(4-chloro-2-(4-(5-(pyrrolidin-2-yl)pyridin-3-yl)phenoxy)benzyl)-8-(4-chlorobenzyl)-5-(methoxymethyl)-2,7,13,14-tetramethyl-1,4,7,11,14-pentaazacyclooctadecane-3,6,10,15,18-pentaone], the IC50 is reported as 3.5 nM.
